Laboratory results published in publication PMC6969153.
Results are given in words; binding and its absence hold for the method and conditions named. In cells and extracts the contact can be indirect. Some binding calls cover weakened binding; strength is not graded here.

Protein sequences, listed by entry. Tags and fused reporters are not part of them.
UniProt Q14145: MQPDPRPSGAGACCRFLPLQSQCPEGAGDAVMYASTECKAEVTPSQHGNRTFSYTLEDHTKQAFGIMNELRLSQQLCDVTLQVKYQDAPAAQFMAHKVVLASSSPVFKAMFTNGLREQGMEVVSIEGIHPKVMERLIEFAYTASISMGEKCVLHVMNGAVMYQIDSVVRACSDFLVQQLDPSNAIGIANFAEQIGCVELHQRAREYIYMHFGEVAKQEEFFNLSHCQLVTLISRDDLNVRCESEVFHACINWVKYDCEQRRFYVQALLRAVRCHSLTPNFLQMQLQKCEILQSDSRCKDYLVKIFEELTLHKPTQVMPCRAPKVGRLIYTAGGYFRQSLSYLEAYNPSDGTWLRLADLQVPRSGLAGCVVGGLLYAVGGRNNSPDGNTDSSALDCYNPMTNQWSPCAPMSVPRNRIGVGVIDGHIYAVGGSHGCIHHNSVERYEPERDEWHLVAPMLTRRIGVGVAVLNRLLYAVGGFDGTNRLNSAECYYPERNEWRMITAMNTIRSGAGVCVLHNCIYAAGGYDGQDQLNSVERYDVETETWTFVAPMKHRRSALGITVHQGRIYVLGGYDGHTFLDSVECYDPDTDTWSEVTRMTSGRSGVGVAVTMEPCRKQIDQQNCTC
UniProt Q14258: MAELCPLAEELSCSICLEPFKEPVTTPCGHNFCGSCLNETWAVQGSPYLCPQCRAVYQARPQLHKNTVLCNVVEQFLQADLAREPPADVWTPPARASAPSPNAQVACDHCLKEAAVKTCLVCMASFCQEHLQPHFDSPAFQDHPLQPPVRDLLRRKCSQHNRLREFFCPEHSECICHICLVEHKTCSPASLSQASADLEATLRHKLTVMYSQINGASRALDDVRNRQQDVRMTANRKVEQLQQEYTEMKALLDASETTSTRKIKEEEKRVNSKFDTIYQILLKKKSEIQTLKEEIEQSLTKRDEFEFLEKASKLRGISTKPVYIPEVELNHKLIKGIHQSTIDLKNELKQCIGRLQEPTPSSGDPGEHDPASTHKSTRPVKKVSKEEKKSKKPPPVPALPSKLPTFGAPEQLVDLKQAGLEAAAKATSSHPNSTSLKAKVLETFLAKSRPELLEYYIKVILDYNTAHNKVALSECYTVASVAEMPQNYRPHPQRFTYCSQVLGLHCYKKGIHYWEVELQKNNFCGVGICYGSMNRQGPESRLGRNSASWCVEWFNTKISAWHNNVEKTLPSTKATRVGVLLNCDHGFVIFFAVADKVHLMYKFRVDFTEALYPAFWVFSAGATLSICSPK

Columns and labels:
GST-Keap1 = GST-Keap1 (UniProt Q14145); assay: pull-down; in vitro GST pulldown, GST-Keap1 (GST as control) with F-TRIM25
[1] = biological target: Keap1 (endogenous) (human (endogenous in HCT116 and Huh7)) (UniProt Q14145); assay: co-IP; endogenous TRIM25 and Keap1 in HCT116 and Huh7 cells, treated with or without TG (1 uM) for 12 h
[2] = biological target: Keap1, transfected in Huh7 cells (Fig. 3q) (UniProt Q14145); assay: co-IP; Huh7 cells transfected with the indicated plasmids (TRIM25, Keap1 and Keap1 mutants); HA-IP and immunoblot

Substance: Flag-TRIM25 (in vitro GST pulldown) (from UniProt Q14258 1-630)
- binding (GST-Keap1): binds

Substance: TRIM25 (endogenous) (from UniProt Q14258 1-630)
- binding [1]: binds

Substance: TRIM25, full-length, overexpressed in Huh7 cells (from UniProt Q14258 1-630)
- binding [2]: binds
